Measured values reported in PubChem BioAssay AID493014 (National Center for Advancing Translational Sciences (NCATS), 2011).
The list shows a part of the results. The main result of the screen is listed elsewhere. These columns were measured beside it and carry no call. Most of these compounds were active or inconclusive in the main read-out, so they are no random draw. Potencies come from curve fits of mixed quality, noted in brackets.

Test: qHTS Assay to Find Inhibitors of Chronic Active B-Cell Receptor Signaling
Conditions: ABC-DLBCL IkBa-CBG/CBR reporter, luminescence ratio (green luciferase fused to IkBa over red control in TMD8 lymphoma cells), 4 h
Outline: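 Doxycycline induced both beetle luciferases in TMD8 lymphoma cells; IKK-driven degradation limits the IkappaBalpha-fused green signal, while red luminescence normalises for cell number and nonspecific effects. Compounds tested up to 46 uM, 4 hrs.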

[1] = measured here: CBR red luminescence, cell number
[2] = measured here: IkBa-CBG green luminescence

Structure (SMILES) | AC50 [1] | AC50 [2]
c1ccc2c(-c3nc(-c4ccncc4)no3)cccc2c1 | 3.55 µM [rising, full curve] | 
Cc1cc(NC(=O)CN2C(=O)NC(c3ccccc3)(c3ccc(C)c(C)c3)C2=O)no1 (configuration not stated) | 29.1 µM [falling, single point] | 
COc1ccc2oc(C(=O)OCc3nnc(-c4ccccc4)o3)c(C)c2c1 | 9.2 µM [rising, partial curve] | 
O=C(COc1ccc(Cl)cc1Cl)Nc1cccnc1 | 10 µM [rising, partial curve] | 
O=C(NC1CC(=O)N(c2ccc(Cl)cc2)C1)c1cccs1 (configuration not stated) | 35.5 µM [falling, single point] | 
Cc1ccnc(NC(=O)C(C)n2cc([N+](=O)[O-])cn2)c1 (configuration not stated) | 35.5 µM [falling, single point] | 
Cc1ccc(N(Cc2ccccc2)C(=O)c2ccc(S(=O)(=O)N3CCOCC3)cc2)cc1 | 32.6 µM [falling, single point] | 
Cn1c(=O)[nH]c(=O)c2c1nc(SCCN1CCCCC1)n2Cc1ccccc1 | 1.03 µM [falling, full curve] | 0.58 µM [rising, full curve, poor fit]
CC(C)(C)c1cc(NC(=O)COC(=O)c2ccc3c(=O)n4c(nc3c2)CCC4)n(-c2ccccc2)n1 | 29.1 µM [falling, single point] | 
CCn1c(SCC(=O)Nc2c(C)n(C)n(-c3ccccc3)c2=O)nc2c1c(=O)n(C)c(=O)n2C | 35.5 µM [falling, partial curve, poor fit] | 
Cc1cc(C)n(CCOc2ccc(Cl)cc2Cl)n1 | 10 µM [rising, partial curve, poor fit] | 
N/C(=N\OC(=O)c1cccs1)c1ccccc1 | 20.6 µM [falling, single point] | 
O=c1c(Cl)c(Nc2cccc(Cl)c2)cnn1-c1nc2ccccc2s1 | 14.6 µM [falling, partial curve] | 
Cc1ccc(S(=O)(=O)NCc2ccc(C(=O)N3CCN(c4ccc([N+](=O)[O-])cc4)CC3)cc2)cc1 | 12.6 µM [falling, partial curve] | 
CS(=O)(=O)c1sc(C(=O)NC(=S)Nc2ccc(OC(F)(F)F)cc2)c2c1C=CCC2 | 0.2 µM [rising, full curve, poor fit] | 
Nc1ccc(N=Nc2ccccc2)c2cccnc12 |  | 10 µM [falling, partial curve, poor fit]
O=C(Nc1ccc(N=Nc2ccccc2)c(NC(=O)C2CCCO2)c1)C1CCCO1 (configuration not stated) | 20.6 µM [falling, partial curve] | 5.17 µM [rising, full curve, poor fit]
COc1ccc(CN2CCC(CNS(=O)(=O)c3cccc(C(F)(F)F)c3)CC2)cc1 | 12.6 µM [falling, partial curve, poor fit] | 
CCCc1ccccc1OCCNS(=O)(=O)c1cc2c(cc1C)OCC(=O)N2 | 17.8 µM [falling, partial curve, poor fit] | 
O=C(CSc1nc(=O)n(Cc2ccco2)c2c1CCC2)NCc1ccc(F)cc1 | 10 µM [falling, single point] | 
COc1ccc(N=Cc2c(O)n(-c3cccc(C)n3)c(=O)c3ccccc23)cc1 | 4.61 µM [rising, full curve, poor fit] | 

Part of the list above, with each value named:
Cc1ccc(S(=O)(=O)NCc2ccc(C(=O)N3CCN(c4ccc([N+](=O)[O-])cc4)CC3)cc2)cc1
  AC50 [1]: 12.6 µM [falling, partial curve]
CS(=O)(=O)c1sc(C(=O)NC(=S)Nc2ccc(OC(F)(F)F)cc2)c2c1C=CCC2
  AC50 [1]: 0.2 µM [rising, full curve, poor fit]
Nc1ccc(N=Nc2ccccc2)c2cccnc12
  AC50 [2]: 10 µM [falling, partial curve, poor fit]
O=C(Nc1ccc(N=Nc2ccccc2)c(NC(=O)C2CCCO2)c1)C1CCCO1 (configuration not stated)
  AC50 [1]: 20.6 µM [falling, partial curve]; AC50 [2]: 5.17 µM [rising, full curve, poor fit]

Additional results.

Structure (SMILES) | AC50 [1] | AC50 [2]
COc1ccc(Cl)c2c1[nH]c1nc(SCc3ccccn3)nnc12 | 14.1 µM [falling, single point] | 
O=C(N=Nc1c(O)[nH]c2ccccc12)c1ccco1 | 4.47 µM [falling, full curve] | 
O=C(Nc1ccccc1F)c1ccc(-c2cccc([N+](=O)[O-])c2)o1 | 4.47 µM [falling, partial curve] | 
O=C(CCc1ccc(O)cc1)c1c(O)cc(O)cc1O | 3.55 µM [rising, partial curve, poor fit] | 
CC(C)(C)C(=O)N1CCN(c2nc3c(F)cccc3s2)CC1 | 35.5 µM [rising, single point] | 
Cc1ccc(NC(=O)CNc2ccc(OC(C)C)cc2)cc1 | 1.03 µM [falling, full curve, poor fit] | 
Cc1nnc(SCC(=O)Nc2ccccc2)c2ccccc12 | 12.6 µM [falling, partial curve] | 
COc1ccc(/C=C/C(=O)Oc2cccc(/C=N/NC(=O)c3cccc(F)c3)c2)cc1 | 15.8 µM [falling, single point] | 
COc1ccccc1N1C(=O)CC(N(O)c2ccccc2)C1=O (configuration not stated) | 3.98 µM [falling, partial curve] | 
COc1cccc(NC2SC(=O)N(c3ccccc3)C2=O)c1 (configuration not stated) | 10.3 µM [falling, partial curve] | 
Cc1cc(OC2CCCCC2)nc(NCc2ccccc2)n1 | 1.78 µM [falling, full curve] | 
O=C(COc1ccc2c(c1)OCO2)NCc1cccs1 | 23.1 µM [falling, single point] | 
Cc1ccc(N2C(=O)CC(Sc3ccccc3C(=O)O)C2=O)cc1 (configuration not stated) | 29.1 µM [falling, single point] | 
O=C1CCCc2[nH]c3cccc(/C(=C/c4ccccc4)c4ccccc4)c3c21 | 12.6 µM [falling, partial curve, poor fit] | 
Cc1cc(NC2CCCC2)n2ncc(-c3ccccc3)c2n1 | 12.6 µM [falling, single point] | 
O=C(N/N=C/c1ccccc1O)C1CC(=O)N(c2ccc(Cl)cc2)C1 (configuration not stated) | 7.08 µM [falling, full curve, poor fit] | 
COc1ccc(OC)c(S(=O)(=O)N(C(C)=O)c2ccc3oc(=O)sc3c2)c1 | 3.98 µM [falling, full curve, poor fit] | 
O=C(O)c1ccc2c(c1)C(=O)N(NC(=O)c1ccc(O)cc1)C2=O | 2.06 µM [falling, full curve] | 
COc1ccc(OCc2cc(C(=O)N3CCCC(OC)C3)no2)c2ccccc12 (configuration not stated) | 5.62 µM [rising, single point] | 
COC(=O)c1ccc(OCCOCCOc2cccc3ccc(C)nc23)cc1 | 32.6 µM [falling, partial curve, poor fit] | 
OCCN(CCO)CC(O)Cn1c2ccccc2c2ccccc21 (configuration not stated) | 1.58 µM [falling, full curve] | 

Structure (SMILES) | AC50 [1] | AC50 [2]
Cc1ccccc1NC(=O)Cn1c([N+](=O)[O-])cnc1C | 23.1 µM [rising, single point] | 
Brc1ccccc1Cn1c(-c2cscn2)nc2ccccc21 | 4.61 µM [rising, full curve, poor fit] | 
Cc1ccc(-n2c3c(cc(C(=O)NCc4ccco4)c2=O)C(=O)CC(C)(C)C3)cc1 | 3.98 µM [falling, partial curve] | 
CC(O)c1nc2ccccc2n1Cc1nnc(-c2ccc(Cl)cc2)o1 (configuration not stated) | 4.47 µM [rising, full curve, poor fit] | 
CN(C)c1ccc(C(c2nnnn2CCOC(=O)Nc2ccc(Cl)cc2)N2CCOCC2)cc1 (configuration not stated) | 4.11 µM [falling, single point] | 
CN1C(=O)/C(=C2/C=Cc3ccccc3N2CCCS(=O)(=O)O)SC1=S | 18.4 µM [rising, partial curve, poor fit] | 
Cc1ccc(S(=O)(=O)Nc2nc(C)c(C(=O)N/N=C/c3ccccc3)s2)cc1 | 6.31 µM [falling, partial curve, poor fit] | 
O=c1cc(-c2ccc(O)cc2)oc2ccc(O)cc12 | 11.2 µM [falling, partial curve, poor fit] | 10 µM [rising, partial curve, poor fit]
C(=C\c1ccccc1)/CSc1ccccn1 | 1.12 µM [rising, full curve, poor fit] | 
COc1cc(C(=O)NNC(=O)c2cc(-c3ccccc3)n[nH]2)cc(OC)c1C | 25.9 µM [falling, partial curve, poor fit] | 
Cc1ccc(NC(=S)NC(NC(=O)c2ccccc2)C(Cl)(Cl)Cl)c(C)c1 (configuration not stated) | 18.4 µM [falling, single point] | 
CCn1c(=O)c2cc(C(=O)NCCC(C)C)sc2c2ccccc21 | 0.708 µM [rising, partial curve, poor fit] | 
Cc1ccc(NC(=O)c2ccc(OC(=O)COc3cccc(Cl)c3)cc2)cc1 | 1.64 µM [falling, full curve] | 
NNC(=O)c1cccc(COCC(F)(F)C(F)F)c1 | 3.16 µM [falling, full curve] | 
COC(=O)c1ccc(NC(=O)CN2CCCC2)cc1 | 6.51 µM [rising, single point] | 
Cc1ccc2cc(C(c3nnnn3C3CCCC3)N3CCN(c4ccccc4)CC3)c(=O)[nH]c2c1 (configuration not stated) | 0.0116 µM [rising, full curve, poor fit] | 
CCOC(=O)N1CCN(S(=O)(=O)c2ccc(F)c(C(=O)Nc3ccc(C)c(Cl)c3)c2)CC1 | 29.1 µM [falling, single point] | 
Cc1cc(C)nc(NC(=O)c2cccs2)c1 | 35.5 µM [falling, partial curve, poor fit] | 
COc1ccc(OC)c(-c2cc(C(=O)N3CCN(c4ccccc4)CC3)no2)c1 | 3.98 µM [falling, single point] | 11.2 µM [falling, partial curve, poor fit]
Nn1c(COc2ccccc2)nc2ccccc2c1=O | 35.5 µM [falling, single point] | 
Clc1ccc(OCc2nn3c(-c4ccco4)nnc3s2)cc1 | 20 µM [falling, partial curve, poor fit] | 
